# Reference: publication PMC6336889
# The chains behind the UniProt entries cited, without tags or fusion partners. Residues count along the entry.
# UniProt Q01638, residues 19-556: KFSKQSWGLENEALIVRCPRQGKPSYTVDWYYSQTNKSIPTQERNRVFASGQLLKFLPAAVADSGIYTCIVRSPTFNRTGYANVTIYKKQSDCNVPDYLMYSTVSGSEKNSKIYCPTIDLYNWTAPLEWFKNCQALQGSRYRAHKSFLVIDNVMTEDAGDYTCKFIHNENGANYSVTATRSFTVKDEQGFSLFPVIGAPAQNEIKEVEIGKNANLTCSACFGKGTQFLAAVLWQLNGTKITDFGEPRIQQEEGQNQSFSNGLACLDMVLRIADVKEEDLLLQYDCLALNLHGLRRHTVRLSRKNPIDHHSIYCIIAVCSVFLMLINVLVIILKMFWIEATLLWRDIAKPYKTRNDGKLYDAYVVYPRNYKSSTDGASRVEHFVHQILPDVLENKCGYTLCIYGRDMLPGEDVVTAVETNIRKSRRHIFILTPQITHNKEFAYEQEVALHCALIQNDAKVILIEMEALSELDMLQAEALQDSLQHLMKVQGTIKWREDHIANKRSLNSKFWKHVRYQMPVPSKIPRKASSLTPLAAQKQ
# UniProt P53779: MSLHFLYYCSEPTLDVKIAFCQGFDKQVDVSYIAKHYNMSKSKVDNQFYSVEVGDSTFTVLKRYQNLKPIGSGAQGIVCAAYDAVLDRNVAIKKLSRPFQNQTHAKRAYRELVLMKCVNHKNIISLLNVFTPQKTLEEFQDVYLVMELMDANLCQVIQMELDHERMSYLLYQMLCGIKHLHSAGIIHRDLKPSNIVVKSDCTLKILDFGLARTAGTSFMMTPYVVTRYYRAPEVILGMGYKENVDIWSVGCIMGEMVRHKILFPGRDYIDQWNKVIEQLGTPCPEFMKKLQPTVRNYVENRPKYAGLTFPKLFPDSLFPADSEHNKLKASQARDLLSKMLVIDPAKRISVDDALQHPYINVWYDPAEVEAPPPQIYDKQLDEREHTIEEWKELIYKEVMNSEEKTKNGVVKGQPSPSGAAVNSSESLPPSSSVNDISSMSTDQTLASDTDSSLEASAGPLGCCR
# UniProt P06241: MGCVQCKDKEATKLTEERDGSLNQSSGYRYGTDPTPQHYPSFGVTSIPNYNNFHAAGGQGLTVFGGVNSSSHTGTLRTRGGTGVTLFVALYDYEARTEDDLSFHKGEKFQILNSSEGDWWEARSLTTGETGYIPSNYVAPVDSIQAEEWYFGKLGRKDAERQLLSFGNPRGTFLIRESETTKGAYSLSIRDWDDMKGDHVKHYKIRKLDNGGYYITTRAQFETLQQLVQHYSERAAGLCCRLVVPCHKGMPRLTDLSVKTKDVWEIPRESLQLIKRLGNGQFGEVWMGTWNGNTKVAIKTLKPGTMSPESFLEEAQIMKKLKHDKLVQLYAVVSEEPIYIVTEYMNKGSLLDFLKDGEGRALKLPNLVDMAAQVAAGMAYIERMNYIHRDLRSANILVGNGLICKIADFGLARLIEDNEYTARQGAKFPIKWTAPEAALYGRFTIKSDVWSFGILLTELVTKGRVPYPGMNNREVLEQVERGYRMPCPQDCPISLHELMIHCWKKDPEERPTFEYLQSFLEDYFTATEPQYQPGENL
# UniProt Q9ULT8: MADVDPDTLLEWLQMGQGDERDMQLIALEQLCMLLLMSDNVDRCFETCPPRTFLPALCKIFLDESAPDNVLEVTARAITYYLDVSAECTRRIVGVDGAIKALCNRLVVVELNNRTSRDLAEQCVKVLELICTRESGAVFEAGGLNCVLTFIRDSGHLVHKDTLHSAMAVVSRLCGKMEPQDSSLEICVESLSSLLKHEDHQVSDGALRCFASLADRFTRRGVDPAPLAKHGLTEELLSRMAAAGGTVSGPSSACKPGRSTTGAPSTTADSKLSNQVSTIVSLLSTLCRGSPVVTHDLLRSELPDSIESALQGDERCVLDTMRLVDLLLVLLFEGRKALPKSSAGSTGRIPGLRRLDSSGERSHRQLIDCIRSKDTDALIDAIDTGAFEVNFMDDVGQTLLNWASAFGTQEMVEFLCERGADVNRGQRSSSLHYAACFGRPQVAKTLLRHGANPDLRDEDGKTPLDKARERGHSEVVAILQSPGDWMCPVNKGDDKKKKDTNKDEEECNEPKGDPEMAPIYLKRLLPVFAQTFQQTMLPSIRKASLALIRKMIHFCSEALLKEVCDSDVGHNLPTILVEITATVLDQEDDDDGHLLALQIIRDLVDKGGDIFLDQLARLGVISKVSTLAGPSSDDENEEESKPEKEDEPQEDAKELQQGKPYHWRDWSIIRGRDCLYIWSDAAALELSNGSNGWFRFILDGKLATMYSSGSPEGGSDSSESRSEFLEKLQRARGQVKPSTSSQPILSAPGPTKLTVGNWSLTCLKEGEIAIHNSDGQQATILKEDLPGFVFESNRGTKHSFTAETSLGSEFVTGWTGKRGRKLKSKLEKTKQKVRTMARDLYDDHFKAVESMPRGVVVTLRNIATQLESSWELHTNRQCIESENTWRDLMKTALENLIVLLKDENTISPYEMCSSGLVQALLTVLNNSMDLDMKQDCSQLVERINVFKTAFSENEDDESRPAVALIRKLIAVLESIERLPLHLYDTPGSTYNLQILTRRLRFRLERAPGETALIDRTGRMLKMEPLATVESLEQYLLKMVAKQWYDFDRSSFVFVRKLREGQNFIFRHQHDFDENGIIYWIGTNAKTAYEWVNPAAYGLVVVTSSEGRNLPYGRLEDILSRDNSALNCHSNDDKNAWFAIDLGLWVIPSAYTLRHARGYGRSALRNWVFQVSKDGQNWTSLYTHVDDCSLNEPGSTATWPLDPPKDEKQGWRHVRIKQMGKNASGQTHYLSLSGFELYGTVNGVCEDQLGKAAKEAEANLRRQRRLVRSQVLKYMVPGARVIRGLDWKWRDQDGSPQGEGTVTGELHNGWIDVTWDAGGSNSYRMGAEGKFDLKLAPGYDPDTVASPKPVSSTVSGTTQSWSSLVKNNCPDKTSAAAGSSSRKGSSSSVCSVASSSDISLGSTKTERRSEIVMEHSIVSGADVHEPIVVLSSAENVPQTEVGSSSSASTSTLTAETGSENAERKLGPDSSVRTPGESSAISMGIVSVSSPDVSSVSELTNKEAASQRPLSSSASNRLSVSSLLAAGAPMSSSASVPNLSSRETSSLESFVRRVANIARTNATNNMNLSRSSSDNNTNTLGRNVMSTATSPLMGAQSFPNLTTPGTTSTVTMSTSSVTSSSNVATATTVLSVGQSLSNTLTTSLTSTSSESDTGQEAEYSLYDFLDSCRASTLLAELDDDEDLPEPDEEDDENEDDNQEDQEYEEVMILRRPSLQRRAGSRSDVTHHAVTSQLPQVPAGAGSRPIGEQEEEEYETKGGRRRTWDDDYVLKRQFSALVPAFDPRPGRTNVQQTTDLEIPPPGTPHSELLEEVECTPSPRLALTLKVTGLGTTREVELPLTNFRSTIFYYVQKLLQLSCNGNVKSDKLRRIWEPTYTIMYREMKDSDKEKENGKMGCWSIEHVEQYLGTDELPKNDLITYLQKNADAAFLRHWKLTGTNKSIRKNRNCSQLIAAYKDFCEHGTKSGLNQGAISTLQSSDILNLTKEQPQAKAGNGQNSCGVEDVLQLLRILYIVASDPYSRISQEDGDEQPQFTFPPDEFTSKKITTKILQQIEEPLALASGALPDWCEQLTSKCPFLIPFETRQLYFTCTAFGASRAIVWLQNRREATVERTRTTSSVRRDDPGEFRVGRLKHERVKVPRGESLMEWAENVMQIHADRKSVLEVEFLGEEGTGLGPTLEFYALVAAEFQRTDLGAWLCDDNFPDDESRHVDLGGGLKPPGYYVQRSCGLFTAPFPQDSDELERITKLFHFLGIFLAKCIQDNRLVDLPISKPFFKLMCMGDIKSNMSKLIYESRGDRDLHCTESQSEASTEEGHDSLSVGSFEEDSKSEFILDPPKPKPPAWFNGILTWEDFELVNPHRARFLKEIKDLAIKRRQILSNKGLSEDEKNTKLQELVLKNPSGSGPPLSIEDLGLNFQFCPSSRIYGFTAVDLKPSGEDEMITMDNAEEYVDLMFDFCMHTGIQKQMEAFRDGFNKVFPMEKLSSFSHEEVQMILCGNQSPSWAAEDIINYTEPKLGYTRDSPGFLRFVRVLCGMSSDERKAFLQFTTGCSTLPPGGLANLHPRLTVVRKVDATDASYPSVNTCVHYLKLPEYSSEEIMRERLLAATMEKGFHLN
# Biological target: GST-fused HRAS protein (GST-HRAS) (UniProt P01112)
# Experiment: affinity purification with mass spectrometry; purified GST-HRAS (GST as control) incubated overnight at 4 °C with pre-cleared human HCC tumor or paired normal tissue lysates; glutathione agarose beads 2 h at 4 °C; washed three times with RIPA buffer; SDS-PAGE, 22 gel slices, LC-MS/MS; only the target purified
row,Substance,binding
1,"Interleukin 1 receptor like 1 (IL1RL1), from human liver tissue (from UniProt Q01638 19-556)",binds
2,JNK3 (from UniProt P53779 1-464),binds
3,Fyn (from UniProt P06241 1-537),binds
4,hect domain containing E3 ubiquitin protein ligase 1 (HectD1) (from UniProt Q9ULT8 1-2610),binds

# No constants are given. Whether binding was seen depends on the method and setting. In cells and extracts the contact can be indirect. Here binding means that the protein was enriched with, or labelled near, the bait; the list need not be complete.
